Results are given in words; binding and its absence hold for the method and conditions named. For some of these results: Binding calls can cover weak binding; strength is not graded here.
B1: A2 component (protein, UniProt Q6LZK7 1-531)
chain: MLLLEVKNVSKSYGDTEVLKNVSFELNEGDVMGVLGRSGAGKSVLLHMLRGMEGYEPTSGQIIYHVAYCPHCENVEAPSQVGKKCECETEYVAKSVDFWNNNEITYALKKKIAIMLQRTFALYGEKTVAENIMEALTAAGYEGKDATEWALNLIKMVKLEHRVAHISRDLSGGEKQRVVLARQIAKNPVIFLADEPTGTLDPKTAKFVHNALTEAVIKHNIAMVITSHWPEVIEELCQKAIWLDKGEMRLVGESKHVVEEFMKTVTSMKEFEKVEVKDELLKLENVEKRYVSVDRGIVKAVDGIDVSINEKEIFGLVGVSGAGKTTLSKIIAAVIPPSKGNYEFRLADEWVDMTKVGPLYRGRAKRYIGMLFQEYSLYPHRTILYNLTESIGLEMPGEFAKMKAEHTLVSVGFTEEEAENMLEKHPSELSVGEKHRVALAQVLIREPHLILLDEPTGTMDPITRNQVAESIQKSRSELDQTYVIVSHDMDFVLNVCDRAALVRGGKIIKTGKPDEIVKILSEEEKDEMIGH

Key:
Test in all cases: cryo-EM structure; single-particle analysis of the Strep-Tactin-purified MCR activation complex (1.2 mg/ml), vitrified anaerobically 'as isolated' (maps with A2 at 2.5 Å and without A2 at 2.7 Å) and after 30 min with 5 mM ATP and the CH4 reaction components except Ti(III) citrate (2.1 Å, locally 1.8 Å); both purified
[1] = molecular target: T1, McrB (Methanococcus maripaludis (endogenous in M. maripaludis JJ Δupt)) (UniProt Q6LWZ9)
T1 sequence: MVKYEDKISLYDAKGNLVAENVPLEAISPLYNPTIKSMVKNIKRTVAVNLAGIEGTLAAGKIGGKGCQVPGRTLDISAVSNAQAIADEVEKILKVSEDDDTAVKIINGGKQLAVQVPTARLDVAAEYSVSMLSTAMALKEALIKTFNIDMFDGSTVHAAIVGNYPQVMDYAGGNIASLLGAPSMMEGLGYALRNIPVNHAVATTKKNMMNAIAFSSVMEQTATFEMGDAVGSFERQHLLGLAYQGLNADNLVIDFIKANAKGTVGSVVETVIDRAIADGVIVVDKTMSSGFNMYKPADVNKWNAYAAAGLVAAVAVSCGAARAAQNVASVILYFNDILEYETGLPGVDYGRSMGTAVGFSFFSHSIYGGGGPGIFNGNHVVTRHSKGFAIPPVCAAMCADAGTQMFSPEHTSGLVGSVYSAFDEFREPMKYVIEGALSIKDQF

[2] = molecular target: T2, Twin-Strep McrC (Methanococcus maripaludis (endogenous in M. maripaludis JJ Δupt)) (UniProt Q6LWZ7)
T2 sequence: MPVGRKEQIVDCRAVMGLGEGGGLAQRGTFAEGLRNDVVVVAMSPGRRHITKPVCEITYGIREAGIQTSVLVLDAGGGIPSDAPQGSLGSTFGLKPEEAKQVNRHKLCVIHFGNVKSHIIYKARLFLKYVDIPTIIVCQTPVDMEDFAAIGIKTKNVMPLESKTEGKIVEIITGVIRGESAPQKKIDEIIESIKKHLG

[3] = molecular target: McrG (Methanococcus maripaludis (endogenous in M. maripaludis JJ Δupt))
[4] = molecular target: methanogenic marker protein Mmp17 (Methanococcus maripaludis (endogenous in M. maripaludis JJ Δupt))
[5] = molecular target: methanogenic marker protein Mmp3 (Methanococcus maripaludis (endogenous in M. maripaludis JJ Δupt))
[6] = molecular target: methanogenic marker protein Mmp7 (Methanococcus maripaludis (endogenous in M. maripaludis JJ Δupt))

Molecule	binding [1]	binding [2]	binding [3]	binding [4]	binding [5]	binding [6]
McrG	binds	binds				
methanogenic marker protein Mmp7		binds				
B1			binds	no binding	no binding	no binding

From publication PMC12176620, “Structure of the ATP-driven methyl-coenzyme M reductase activation complex” (Nature, 2025)
